The list shows only some results of the screen, not a fair sample: it is rich in T/C values a quarter to a half above the control, in often repeated tests (any T/C) and in doses without a T/C. Other doses and runs of a compound stand elsewhere. T/C is the treated group as % of the vehicle group. Some entries give survivors of the animals treated and no T/C: the source holds a T/C of zero for them, seemingly a mark for toxic or unscored doses. Some survivor counts are full or nearly so, which does not show that the dose was tolerated: survival well below the control is almost never listed, so the zero probably covers shortened survival too. Counts of survivors are from the toxicity check (mostly the fifth day) where no day follows; animals may have died later. Schedules are NCI's codes, taken here to give the interval after Q, in days (D) or hours (H), and the number of doses after X. Some schedule codes hold Z or #, which are not explained here. For survival time, the PubChem record calls one and a half times the control and up active, and a quarter to a half above the control has no call in these data; cut-offs in other NCI protocols can differ. Some entries were tested several times; their values stand side by side, smallest first. Brackets with × say how often a value occurs here.
Test system: CD2F1 mice, L1210 leukemia ip, survival T/C
Experiment: NCI In Vivo Anticancer Drug Screen. Data for tumor model L1210 Leukemia (intraperitoneal) in CD2F1 (CDF1) mice
Details: higher T/C = longer survival
Outline: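 Vehicle-treated tumor-bearing mice served as controls (C) for compound-treated mice (T). Reported figure is T divided by C.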

[1] = T/C endpoint: mean survival time, dose: 400.0 mg/kg/injection, schedule: Q01DX009 (ip), vehicle: saline with Tween-80
[2] = T/C endpoint: mean survival time, dose: 200.0 mg/kg/injection, schedule: Q04DX003 (ip), vehicle: saline with Tween-80
[3] = T/C endpoint: mean survival time, dose: 400.0 mg/kg/injection, schedule: Q01DX001 (ip), vehicle: saline with Tween-80
[4] = T/C endpoint: mean survival time, dose: 300.0 mg/kg/injection, schedule: Q01DX001 (ip), vehicle: saline
[5] = T/C endpoint: mean survival time, dose: 400.0 mg/kg/injection, schedule: Q04DX003 (ip), vehicle: saline with Tween-80
[6] = T/C endpoint: mean survival time, dose: 400.0 mg/kg/injection, schedule: Q04DX003 (ip), vehicle: Klucel (hydroxypropylcellulose) (HPC)

SMILES: NC(CNC(=O)CBr)C(=O)O (stereo not given)
- T/C (T/C endpoint: median survival time, dose: 6.25 mg/kg/injection, schedule: Q01DX009 (ip), vehicle: water): 125 % of control
- T/C (T/C endpoint: median survival time, dose: 12.0 mg/kg/injection, schedule: Q01DX009 (ip), vehicle: water): 126 and 133 % of control
- T/C (T/C endpoint: median survival time, dose: 24.0 mg/kg/injection, schedule: Q01DX009 (ip), vehicle: water): 136 % of control
- T/C (T/C endpoint: median survival time, dose: 48.0 mg/kg/injection, schedule: Q01DX009 (ip), vehicle: water): 145 % of control
- survivor count (T/C endpoint: median survival time, dose: 50.0 mg/kg/injection, schedule: Q01DX009 (ip), vehicle: water): 3 of 6
- survivor count (T/C endpoint: median survival time, dose: 96.0 mg/kg/injection, schedule: Q01DX009 (ip), vehicle: water): 1 of 6
- survivor count (T/C endpoint: median survival time, dose: 100.0 mg/kg/injection, schedule: Q01DX009 (ip), vehicle: water): 0 of 6

SMILES: COc1ccc2c(c1)CCCC2=O
- survivor count [1]: 0 of 6

SMILES: COc1cc2ccc(/C=C\[N+](=O)[O-])cc2cc1OC
- survivor count (T/C endpoint: mean survival time, dose: 100.0 mg/kg/injection, schedule: Q01DX009 (ip), vehicle: water): 3 of 6
- survivor count (T/C endpoint: mean survival time, dose: 200.0 mg/kg/injection, schedule: Q01DX009 (ip), vehicle: water): 2 of 6

SMILES: NC1CCCCC1N.O=S(=O)([O-])CCCN1CCN(CCO)CC1.O=S(=O)([O-])CCCN1CCN(CCO)CC1.[Pt+4]
- T/C (T/C endpoint: median survival time, dose: 3.12 mg/kg/injection, schedule: Q04DX003 (ip), vehicle: saline, evaluated on day 30): 131 % of control
- T/C (T/C endpoint: median survival time, dose: 3.12 mg/kg/injection, schedule: Q04DX003 (ip), vehicle: saline, evaluated on day 40): 135 % of control
- survivor count (T/C endpoint: median survival time, dose: 100.0 mg/kg/injection, schedule: Q04DX003 (ip), vehicle: saline): 4 of 6
- survivor count (T/C endpoint: median survival time, dose: 200.0 mg/kg/injection, schedule: Q04DX003 (ip), vehicle: saline): 0 of 6

SMILES: O=C(Nc1cccc(O)c1)C(Cl)=C(Cl)Cl
- T/C (T/C endpoint: median survival time, dose: 3.12 mg/kg/injection, schedule: Q01DX005 (ip), vehicle: other): 125 % of control
- survivor count (T/C endpoint: median survival time, dose: 50.0 mg/kg/injection, schedule: Q01DX005 (ip), vehicle: other): 4 of 6

SMILES: S=c1nc(-c2ccccc2)c(-c2ccccc2)n[nH]1
- survivor count (T/C endpoint: mean survival time, dose: 300.0 mg/kg/injection, schedule: Q01DX009 (ip), vehicle: saline): 6 of 6

SMILES: CC(C)COC(=O)c1ccc(NC(=O)Nc2ccccc2Cl)cc1
- survivor count [2]: 6 of 6
- survivor count [1]: 2 of 6

SMILES: NC1CCCCC(O)CCCC1 (stereo not given)
- survivor count (T/C endpoint: mean survival time, dose: 100.0 mg/kg/injection, schedule: Q01DX001 (ip), vehicle: saline with Tween-80): 3 of 6
- survivor count (T/C endpoint: mean survival time, dose: 200.0 mg/kg/injection, schedule: Q01DX001 (ip), vehicle: saline with Tween-80): 1 of 6
- survivor count [3]: 0 of 6

SMILES: Cn1cnc([N+](=O)[O-])c1[Se]c1nc(N)nc2nc[nH]c12
- T/C (T/C endpoint: mean survival time, dose: 11.0 mg/kg/injection, schedule: Q01DX005 (ip), vehicle: water): 136 % of control
- T/C (T/C endpoint: mean survival time, dose: 12.5 mg/kg/injection, schedule: Q01DX009 (ip), vehicle: water): 134 % of control
- T/C (T/C endpoint: mean survival time, dose: 16.5 mg/kg/injection, schedule: Q01DX005 (ip), vehicle: water): 145 % of control

SMILES: OCC1OC(c2[nH]nc3c(NO)ncnc23)C(O)C1O (stereo not given)
- survivor count [4]: 1 of 6

SMILES: O=NN1CCOC1=NCCCl
- survivor count (T/C endpoint: mean survival time, dose: 400.0 mg/kg/injection, schedule: Q01DX001 (ip), vehicle: water): 0 of 6
- survivor count (T/C endpoint: mean survival time, dose: 800.0 mg/kg/injection, schedule: Q01DX001 (ip), vehicle: water): 0 of 6

SMILES: O=C(O)c1ccccc1Nc1ccc(Br)cc1
- survivor count [5]: 0 of 6

SMILES: ClC=P(c1ccccc1)(c1ccccc1)c1ccccc1
- survivor count [1]: 0 of 6

SMILES: [Cl][Pt+2][Cl].[NH-]CC1CCC[N-]C1 (stereo not given)
- T/C (T/C endpoint: mean survival time, dose: 6.25 mg/kg/injection, schedule: Q04DX003 (ip), vehicle: saline with Tween-80): 127 % of control
- T/C (T/C endpoint: mean survival time, dose: 12.5 mg/kg/injection, schedule: Q04DX003 (ip), vehicle: saline with Tween-80): 133 % of control
- T/C (T/C endpoint: mean survival time, dose: 25.0 mg/kg/injection, schedule: Q04DX003 (ip), vehicle: saline with Tween-80): 127 % of control

SMILES: NC(N)=N/N=C/c1ccncc1
- survivor count (T/C endpoint: mean survival time, dose: 200.0 mg/kg/injection, schedule: Q04DX002 (ip), vehicle: saline): 0 of 3
- survivor count (T/C endpoint: mean survival time, dose: 400.0 mg/kg/injection, schedule: Q04DX002 (ip), vehicle: saline): 0 of 3

SMILES: Nc1ccccc1-c1nc2ccncc2[nH]1
- survivor count [4]: 0 of 6

SMILES: CN(C)c1ccc(/C=N/N=C(/N)N[N+](=O)[O-])cc1
- survivor count (T/C endpoint: mean survival time, dose: 400.0 mg/kg/injection, schedule: Q01DX001 (ip), vehicle: saline): 0 of 3

SMILES: c1ccc(CCNc2ncnc3nc[nH]c23)cc1
- survivor count (T/C endpoint: mean survival time, dose: 400.0 mg/kg/injection, schedule: Q01DX005 (ip), vehicle: water): 3 of 3

SMILES: O=S(=O)(/C=C/S(=O)(=O)c1ccccc1)c1ccccc1
- survivor count (T/C endpoint: mean survival time, dose: 250.0 mg/kg/injection, schedule: Q01DX009 (ip), vehicle: Klucel (hydroxypropylcellulose) (HPC)): 3 of 6

SMILES: CCSCCCC(=O)O
- survivor count (T/C endpoint: mean survival time, dose: 200.0 mg/kg/injection, schedule: Q04DX003 (ip), vehicle: saline sonified): 3 of 6
- survivor count (T/C endpoint: mean survival time, dose: 400.0 mg/kg/injection, schedule: Q04DX003 (ip), vehicle: saline sonified): 2 of 6

SMILES: CCOC(=O)c1cnc2c(cnn2CC)c1N1CCCCC1
- survivor count [6]: 0 of 3

SMILES: CC[C@H]1CN2CCc3cc(OC)c(OC)cc3[C@@H]2C[C@@H]1C[C@@H]1c2cc(OC)c(OC)cc2CCN1N=O
- survivor count (T/C endpoint: mean survival time, dose: 100.0 mg/kg/injection, schedule: Q04DX003 (ip), vehicle: saline): 6 of 6

SMILES: O=C(CCBr)c1ccc(Cl)cc1
- survivor count (T/C endpoint: mean survival time, dose: 200.0 mg/kg/injection, schedule: Q01DX009 (ip), vehicle: saline sonified): 0 of 6
- survivor count (T/C endpoint: mean survival time, dose: 400.0 mg/kg/injection, schedule: Q01DX009 (ip), vehicle: saline sonified): 0 of 6

SMILES: Cc1[nH]c(=O)[nH]c(=O)c1NC(=O)c1ccccc1[N+](=O)[O-]
- survivor count (T/C endpoint: mean survival time, dose: 100.0 mg/kg/injection, schedule: Q04DX003 (ip), vehicle: saline with Tween-80): 2 of 6
- survivor count [2]: 3 of 6
- survivor count [5]: 1 of 6

SMILES: N=C(N)c1cccc(NC(=O)c2ccc(C(=O)Nc3cccc(C(=N)N)c3)c(N)c2)c1
- survivor count (T/C endpoint: mean survival time, dose: 50.0 mg/kg/injection, schedule: Q01DX Z (ip), vehicle: carboxymethylcellulose (CMC)): 0 of 6
- survivor count (T/C endpoint: mean survival time, dose: 100.0 mg/kg/injection, schedule: Q01DX Z (ip), vehicle: carboxymethylcellulose (CMC)): 0 of 6
- survivor count (T/C endpoint: mean survival time, dose: 200.0 mg/kg/injection, schedule: Q01DX Z (ip), vehicle: carboxymethylcellulose (CMC)): 0 of 6
- survivor count (T/C endpoint: mean survival time, dose: 400.0 mg/kg/injection, schedule: Q01DX Z (ip), vehicle: carboxymethylcellulose (CMC)): 0 of 6

SMILES: CCn1c(C)[n+](CC)c2ccc(C(F)(F)F)cc21
- survivor count [4]: 0 of 6

SMILES: O=C1c2ccccc2C(=O)N1CCS(=O)(=O)Cl
- survivor count (T/C endpoint: mean survival time, dose: 200.0 mg/kg/injection, schedule: Q01DX009 (ip), vehicle: saline with Tween-80): 0 of 3
- survivor count [3]: 1 of 6

SMILES: CC(=O)CC(OC(=O)c1cc([N+](=O)[O-])cc([N+](=O)[O-])c1)(C(F)(F)F)C(F)(F)F
- survivor count (T/C endpoint: mean survival time, dose: 200.0 mg/kg/injection, schedule: Q04DX003 (ip), vehicle: Klucel (hydroxypropylcellulose) (HPC)): 2 of 6
- survivor count [6]: 0 of 6

SMILES: N[N+]#COC1C(C(=O)NN)C1C(=O)NN (stereo not given)
- survivor count (T/C endpoint: median survival time, dose: 200.0 mg/kg/injection, schedule: Q04DX002 (ip), vehicle: saline with Tween-80): 3 of 3

SMILES: c1ccc(CCSc2ncnc3nc[nH]c23)cc1
- T/C (T/C endpoint: mean survival time, dose: 62.5 mg/kg/injection, schedule: Q01DX009 (ip), vehicle: saline): 98, 101 (2×), 103 % of control
- T/C (T/C endpoint: mean survival time, dose: 125.0 mg/kg/injection, schedule: Q01DX009 (ip), vehicle: saline): 102, 104, 112, 113 % of control
- T/C (T/C endpoint: mean survival time, dose: 250.0 mg/kg/injection, schedule: Q01DX009 (ip), vehicle: saline): 108, 118, 122, 130 % of control
- T/C (T/C endpoint: mean survival time, dose: 500.0 mg/kg/injection, schedule: Q01DX009 (ip), vehicle: saline): 122, 134, 163 % of control (2×)

SMILES: COC(=O)c1cc(NC(=O)Nc2cc([N+](=O)[O-])ccc2Cl)cc(C(=O)OC)c1
- survivor count (T/C endpoint: mean survival time, dose: 200.0 mg/kg/injection, schedule: Q01DX001 (ip), vehicle: saline): 6 of 6

SMILES: CCCCCCCCCCCCCCCC(=O)N(CCC#N)CCC#N
- survivor count (T/C endpoint: mean survival time, dose: 100.0 mg/kg/injection, schedule: Q01DX009 (ip), vehicle: saline with Tween-80): 3 of 6
- survivor count [1]: 2 of 6
